Test results published in the supplement of paper PMC8728848.
The other results are listed elsewhere or left out.

Columns and labels:
Assay in all cases: glycan array binding signal (z-score within array); higher = stronger binding
Conditions in all cases: glycan notation: IUPAC condensed, linker removed
[1] = molecular target: Neu5Ac(a2-6)Gal(b1-4)GlcNAc(b1-2)Man(a1-3)[Neu5Ac(a2-3)Gal(b1-4)GlcNAc(b1-2)Man(a1-6)]Man(b1-4)GlcNAc(b1-4)GlcNAc
Procedure, shortened: (§1)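 Columns mapping to the same glycan were averaged after glycan names were converted to IUPAC-condensed notation. The data come from 3228 arrays in the Consortium for Functional Glycomics database, limited to those with an available protein sequence. Binding is reported as a within-array Z-score averaged across arrays of one protein sequence and across linkers.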

[2] = molecular target: Neu5Ac(a2-6)Gal(b1-4)GlcNAc(b1-2)Man(a1-3)[Neu5Ac(a2-6)Gal(b1-4)GlcNAc(b1-2)Man(a1-6)]Man(b1-4)GlcNAc(b1-4)GlcNAc
Procedure, shortened: as §1

[3] = molecular target: Neu5Ac(a2-6)Gal(b1-4)GlcNAc(b1-2)Man(a1-3)[Neu5Ac(a2-6)Gal(b1-4)GlcNAc(b1-2)Man(a1-6)]Man(b1-4)GlcNAc(b1-4)[Fuc(a1-6)]GlcNAc
Procedure, shortened: as §1

[4] = molecular target: Neu5Ac(a2-6)Gal(b1-4)GlcNAc(b1-2)Man(a1-6)Man(b1-4)GlcNAc(b1-4)GlcNAc
Procedure, shortened: as §1

[5] = molecular target: Neu5Ac(a2-6)Gal(b1-4)GlcNAc(b1-2)Man(a1-6)[Gal(b1-4)GlcNAc(b1-2)Man(a1-3)]Man(b1-4)GlcNAc(b1-4)GlcNAc
Procedure, shortened: as §1

[6] = molecular target: Neu5Ac(a2-6)Gal(b1-4)GlcNAc(b1-2)Man(a1-6)[GlcNAc(b1-2)Man(a1-3)]Man(b1-4)GlcNAc(b1-4)GlcNAc
Procedure, shortened: as §1

[7] = molecular target: Neu5Ac(a2-6)Gal(b1-4)GlcNAc(b1-2)Man(a1-6)[Man(a1-3)]Man(b1-4)GlcNAc(b1-4)GlcNAc
Procedure, shortened: as §1

[8] = molecular target: Neu5Ac(a2-6)Gal(b1-4)GlcNAc(b1-2)[Neu5Ac(a2-6)Gal(b1-4)GlcNAc(b1-4)]Man(a1-3)[GlcNAc(b1-4)][Neu5Ac(a2-6)Gal(b1-4)GlcNAc(b1-2)[Neu5Ac(a2-6)Gal(b1-4)GlcNAc(b1-6)]Man(a1-6)]Man(b1-4)GlcNAc(b1-4)GlcNAc
Procedure, shortened: as §1

[9] = molecular target: Neu5Ac(a2-6)Gal(b1-4)GlcNAc(b1-2)[Neu5Ac(a2-6)Gal(b1-4)GlcNAc(b1-4)]Man(a1-3)[GlcNAc(b1-4)][Neu5Ac(a2-6)Gal(b1-4)GlcNAc(b1-4)Man(a1-6)]Man(b1-4)GlcNAc(b1-4)GlcNAc
Procedure, shortened: as §1

[10] = molecular target: Neu5Ac(a2-6)Gal(b1-4)GlcNAc(b1-2)[Neu5Ac(a2-6)Gal(b1-4)GlcNAc(b1-6)]Man(a1-6)[Neu5Ac(a2-6)Gal(b1-4)GlcNAc(b1-2)Man(a1-3)][GlcNAc(b1-4)]Man(b1-4)GlcNAc(b1-4)GlcNAc
Procedure, shortened: as §1

[11] = molecular target: Neu5Ac(a2-6)Gal(b1-4)GlcNAc(b1-3)Gal(b1-3)GlcNAc
Procedure, shortened: as §1

[12] = molecular target: Neu5Ac(a2-6)Gal(b1-4)GlcNAc(b1-3)Gal(b1-4)GlcNAc
Procedure, shortened: as §1

[13] = molecular target: Neu5Ac(a2-6)Gal(b1-4)GlcNAc(b1-3)Gal(b1-4)GlcNAc(b1-2)Man(a1-3)[Neu5Ac(a2-6)Gal(b1-4)GlcNAc(b1-3)Gal(b1-4)GlcNAc(b1-2)Man(a1-6)]GalNAc
Procedure, shortened: as §1

[14] = molecular target: Neu5Ac(a2-6)Gal(b1-4)GlcNAc(b1-3)Gal(b1-4)GlcNAc(b1-3)Gal(b1-4)GlcNAc
Procedure, shortened: as §1

[15] = molecular target: Neu5Ac(a2-6)Gal(b1-4)GlcNAc(b1-3)Gal(b1-4)GlcNAc(b1-3)Gal(b1-4)GlcNAc(b1-2)Man(a1-3)[Neu5Ac(a2-6)Gal(b1-4)GlcNAc(b1-3)Gal(b1-4)GlcNAc(b1-3)Gal(b1-4)GlcNAc(b1-2)Man(a1-6)]GalNAc
Procedure, shortened: as §1

[16] = molecular target: Neu5Ac(a2-6)Gal(b1-4)GlcNAc(b1-3)Gal(b1-4)GlcNAc(b1-3)GalNAc
Procedure, shortened: as §1

[17] = molecular target: Neu5Ac(a2-6)Gal(b1-4)GlcNAc(b1-3)Gal(b1-4)GlcNAc(b1-3)[Neu5Ac(a2-6)Gal(b1-4)GlcNAc(b1-3)Gal(b1-4)GlcNAc(b1-6)]GalNAc
Procedure, shortened: as §1

[18] = molecular target: Neu5Ac(a2-6)Gal(b1-4)GlcNAc(b1-3)Gal(b1-4)GlcNAc(b1-6)[Gal(b1-3)]GalNAc
Procedure, shortened: as §1

[19] = molecular target: Neu5Ac(a2-6)Gal(b1-4)GlcNAc(b1-3)Gal(b1-4)[Fuc(a1-3)]GlcNAc(b1-3)Gal(b1-4)[Fuc(a1-3)]GlcNAc
Procedure, shortened: as §1

[20] = molecular target: Neu5Ac(a2-6)Gal(b1-4)GlcNAc(b1-3)GalNAc
Procedure, shortened: as §1

[21] = molecular target: Neu5Ac(a2-6)Gal(b1-4)GlcNAc(b1-3)[Neu5Ac(a2-6)Gal(b1-4)GlcNAc(b1-6)]GalNAc
Procedure, shortened: as §1

[22] = molecular target: Neu5Ac(a2-6)Gal(b1-4)GlcNAc(b1-6)GalNAc
Procedure, shortened: as §1

[23] = molecular target: Neu5Ac(a2-6)Gal(b1-4)GlcNAc(b1-6)[Gal(b1-3)GlcNAc(b1-3)]Gal(b1-4)Glc
Procedure, shortened: as §1

[24] = molecular target: Neu5Ac(a2-6)Gal(b1-4)GlcNAc(b1-6)[Gal(b1-3)]GalNAc
Procedure, shortened: as §1

[25] = molecular target: Neu5Ac(a2-6)Gal(b1-4)GlcNAc6S
Procedure, shortened: as §1

[26] = molecular target: Neu5Ac(a2-6)GalNAc
Procedure, shortened: as §1

[27] = molecular target: Neu5Ac(a2-6)GalNAc(b1-4)GlcNAc
Procedure, shortened: as §1

[28] = molecular target: Neu5Ac(a2-6)GalNAc(b1-4)GlcNAc6S
Procedure, shortened: as §1

[29] = molecular target: Neu5Ac(a2-6)GlcNAc(b1-4)GlcNAc
Procedure, shortened: as §1

[30] = molecular target: Neu5Ac(a2-6)GlcNAc(b1-4)GlcNAc(b1-4)GlcNAc
Procedure, shortened: as §1

B1: cFel (Cyprinus carpio), P68512 (protein)
chain: LDCTVIDGNLKQIDAGSGSVVGVNNLNETFVLIDNVFTKISGSLKHFSVGPAGQLGVNTANNIFKYQSGGFVQLAGLLKQVDAGGDQIIAGVNMYDDIYCLNMDANNKWPSSNTPWVQINGKLKYYSCGPYSCWGVNSNDQIFIMKDVSSNVCSGSGSFINIPGLLSMIEVATDGSVFGVNSQGNLYQRTGVTRSKPDGTDWISMVACPNGHKHVSFDLGVLWLVCVDGSIRKCILTD
glycan array binding signal (z-score) [1]: -0.624 | glycan array binding signal (z-score) [2]: 1.08 | glycan array binding signal (z-score) [3]: 0.618 | glycan array binding signal (z-score) [4]: 0.879 | glycan array binding signal (z-score) [5]: 2.07 | glycan array binding signal (z-score) [6]: -0.268 | glycan array binding signal (z-score) [7]: -0.759 | glycan array binding signal (z-score) [8]: -0.161 | glycan array binding signal (z-score) [9]: 0.015 | glycan array binding signal (z-score) [10]: 0.265 | glycan array binding signal (z-score) [11]: -0.253 | glycan array binding signal (z-score) [12]: 1.98 | glycan array binding signal (z-score) [13]: -1.62 | glycan array binding signal (z-score) [14]: -1.19 | glycan array binding signal (z-score) [15]: 0.546 | glycan array binding signal (z-score) [16]: -0.897 | glycan array binding signal (z-score) [17]: 0.838 | glycan array binding signal (z-score) [18]: -0.507 | glycan array binding signal (z-score) [19]: 0.134 | glycan array binding signal (z-score) [20]: -0.318 | glycan array binding signal (z-score) [21]: 3.16 | glycan array binding signal (z-score) [22]: -0.757 | glycan array binding signal (z-score) [23]: -1.23 | glycan array binding signal (z-score) [24]: -0.673 | glycan array binding signal (z-score) [25]: -0.985 | glycan array binding signal (z-score) [26]: -1.14 | glycan array binding signal (z-score) [27]: -0.247 | glycan array binding signal (z-score) [28]: -0.918 | glycan array binding signal (z-score) [29]: 0.562 | glycan array binding signal (z-score) [30]: 0.743
